Where a name gives a salt, the structure may show the parent alone. Some results were stated once for a whole list of compounds, not compound by compound.
Molecular target: T1, MC4-R (Homo sapiens, UniProt P32245)
T1 construct: expressed in transfected cells
Experiment: cAMP assay for MC4-R antagonist activity in stably transfected K293 cells
Assay type: cell-based
Details: MC4-R versus MC1-R

Amino acid sequences for entries named in this document (tags omitted).
UniProt P32245, whole entry: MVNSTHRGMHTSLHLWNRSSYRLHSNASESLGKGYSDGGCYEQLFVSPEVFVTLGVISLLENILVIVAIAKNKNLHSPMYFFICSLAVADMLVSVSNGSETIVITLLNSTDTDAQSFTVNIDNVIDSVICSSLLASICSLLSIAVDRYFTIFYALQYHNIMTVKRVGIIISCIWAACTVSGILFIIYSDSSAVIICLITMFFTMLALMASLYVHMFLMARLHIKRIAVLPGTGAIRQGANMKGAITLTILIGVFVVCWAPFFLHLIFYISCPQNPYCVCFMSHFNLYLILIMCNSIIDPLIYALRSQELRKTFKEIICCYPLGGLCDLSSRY

| Compound | selectivity for MC4-R than MC1-R, MC3-R and MC5-R |
| --- | --- |
| COc1ccc([N+](=O)[O-])cc1CSc1ccccc1C1=NC2CCCCC2N1 (centres unmarked) [AG, 2-[2-(2-Methoxy-5-nitro-benzylsulfanyl)-phenyl]-3a,4,5,6,7,7a-hexahydro-1H-benzoimidazole; hydrobromide] | at least 100 fold |
| COc1ccc([N+](=O)[O-])cc1CSc1ccccc1C1=NCCCN1 [N, 2-[2-(2-Methoxy-5-nitro-benzylsulfanyl)-phenyl]-1,4,5,6-tetrahydro-pyrimidine; hydrobromide] | at least 100 fold |

From patent publication US7375125B2, “Melanocortin-4 receptor binding compounds and methods of use thereof” (Ore Pharmaceuticals, Inc., priority 1999, dated 2008)
